{
  "sequences": {"note": "Amino acid sequences for entries named in this document (tags omitted).", "UniProt Q9ERK7": "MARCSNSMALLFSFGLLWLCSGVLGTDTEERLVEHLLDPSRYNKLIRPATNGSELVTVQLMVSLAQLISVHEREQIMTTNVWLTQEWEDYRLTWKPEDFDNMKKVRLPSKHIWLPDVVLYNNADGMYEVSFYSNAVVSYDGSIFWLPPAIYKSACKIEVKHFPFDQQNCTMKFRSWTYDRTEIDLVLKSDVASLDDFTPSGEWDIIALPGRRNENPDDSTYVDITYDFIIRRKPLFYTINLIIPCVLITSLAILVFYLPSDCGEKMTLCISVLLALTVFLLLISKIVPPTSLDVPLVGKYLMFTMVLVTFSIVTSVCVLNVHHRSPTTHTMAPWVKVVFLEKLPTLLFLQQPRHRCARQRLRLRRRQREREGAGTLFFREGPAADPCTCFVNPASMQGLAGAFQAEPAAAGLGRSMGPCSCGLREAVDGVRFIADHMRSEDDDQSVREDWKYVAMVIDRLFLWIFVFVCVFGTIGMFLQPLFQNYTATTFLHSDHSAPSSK"},
  "source": "paper PMC4985585",
  "note": "Results are given in words; binding and its absence hold for the method and conditions named. In cells and extracts the contact can be indirect. Here binding means that the protein was enriched with, or labelled near, the bait; the list need not be complete.",
  "data": [
    {"biological_target": "Neuronal acetylcholine receptor subunit β2 (mouse) (mouse (endogenous in cortex)) (UniProt Q9ERK7)", "assay": "affinity purification with mass spectrometry; β2*-nAChRs captured on mAb295-coupled M270 Dynabeads from a Triton X-100 extract of pooled mouse cortex membranes after DSP cross-linking; eight-plex iTRAQ LC-MS/MS; β2+/+, β2+/-, α4+/-β2+/- and β2-/- mice given saline or nicotine (4 mg/kg/h, 10 d); proteins found in both biological replicates", "values": [
      {"binder": "Mito 2-oxoglutarate/malate carrier protein (mouse) (protein, UniProt Q9CR62 1-314) MAATASPGAGRMDGKPRTSPKSVKFLFGGLAGMGATVFVQPLDLVKNRMQLSGEGAKTREYKTSFHALTSILKTEGLKGIYTGLSAGLLRQATYTTTRLGIYTVLFERLTGADGTPPGFLLKALIGMTAGATGAFVGTPAEVALIRMTADGRLPADQRRGYKNVFNALVRIAREEGVPTLWRGCIPTMARAVVVNAAQLASYSQSKQFLLDSGYFSDNILCHFCASMISGLVTTAASMPVDIVKTRIQNMRMIDGKPEYKNGLDVLLKVVRYEGFFSLWKGFTPYYARLGPHTVLTFIFLEQMNKAYKRLFLSG", "binding": "binds"},
      {"binder": "Phosphate carrier protein, mito (mouse) (protein, UniProt Q8VEM8 46-357) AVEEYSCEFGSMKYYALCGFGGVLSCGLTHTAVVPLDLVKCRMQVDPQKYKGIFNGFSITLKEDGVRGLAKGWAPTLIGYSMQGLCKFGFYEVFKALYSNILGEENTYLWRTSLYLASSASAEFFADIALAPMEAAKVRIQTQPGYANTLREAVPKMYKEEGLNAFYKGVAPLWMRQIPYTMMKFACFERTVEALYKFVVPKPRSECTKAEQLVVTFVAGYIAGVFCAIVSHPADSVVSVLNKEKGSTASQVLQRLGFRGVWKGLFARIIMIGTLTALQWFIYDSVKVYFRLPRPPPPEMPESLKKKLGLTE", "binding": "binds"},
      {"binder": "Myosin light polypeptide 6 (mouse) (protein, UniProt Q60605 1-151) MCDFTEDQTAEFKEAFQLFDRTGDGKILYSQCGDVMRALGQNPTNAEVLKVLGNPKSDEMNVKVLDFEHFLPMLQTVAKNKDQGTYEDYVEGLRVFDKEGNGTVMGAEIRHVLVTLGEKMTEEEVEMLVAGHEDSNGCINYEAFVRHILSG", "binding": "binds"},
      {"binder": "NADH dehydrogenase [ubiquinone] 1 α subcomplex subunit 5 (mouse) (protein, UniProt Q9CPP6 1-116) MAGLLKKTTGLVGLAVCDTPHERLTILYTKTLDILKHFPKHAAYRKYTEQITNEKLDMVKAEPDVKKLEALLQGGEVEEVILQAEKELSLARKMLKWKPWEPLVEEPPANQWKWPI", "binding": "binds"},
      {"binder": "NADH dehydrogenase [ubiquinone] 1 α subcomplex subunit 10, mito (mouse) (protein, UniProt Q99LC3 36-355) LRYGLLAAILGDKTTKKLHEYSRVITVDGNICSGKNKLAKEIAQQLGMKHYPEAGIQYSSTTTGDGRPLDIEFSGSCSLEKFYDDPKSNDGNSYRLQSWLYASRLLQYADALEHLLSTGQGVVLERSIYSDFVFLEAMYNQGYIRKQCVDHYNEIKRLTLPEYLPPHAVIYIDVPVPEVQSRIQKKGDPHEMKVTSAYLQDIENAYKKTFLPKMSEMCEVLVYDSWEAEDPTKVVEDIEYLKYNKGPWLKQDDWTFHYLRMLVQDKTEVLNYTTIPVYLPEITIGAHQGSRIYNSFRELPGRKYAPGYNAEVGDKWIWLK", "binding": "binds"},
      {"binder": "NADH dehydrogenase [ubiquinone] 1 β subcomplex subunit 3 (mouse) (protein, UniProt Q9CQZ6 1-104) MAAGHGHEHGHEHGHGHGKMELPDYRQWKIEGTPLETVQKKLAARGLRDPWARNEAWRYMGGFAGNITFPSVILKGFKWGFAAFVVALGAEYFLDSQNGDKKHH", "binding": "binds"},
      {"binder": "NADH dehydrogenase [ubiquinone] 1 β subcomplex subunit 4 (mouse) (protein, UniProt Q9CQC7 1-129) MSGSKYKPAPLATLPSTLDPAEYDVSPETRRAQVERLSIRARLKREYLLQYNDPKRVSHIEDPALIRWTYARSANIYPNFRPTPKNSLLGAVAGFGPLIFWYYVFKTDRDRKERLIQEGKLDRKFNISY", "binding": "binds"},
      {"binder": "NADH dehydrogenase [ubiquinone] 1 β subcomplex subunit 7 (mouse) (protein, UniProt Q9CR61 1-137) MGAHLTRRYLWDASVEPDPEKIPSFPPDLGFPERKERVMVATQQEMMDAQLTLQQRDYCAHYLIRLLKCKRDSFPNFLACKHEQHDWDYCEHLDYVKRMKEFERERRLLQRKKRRALKEARVAQGQGEGEVGPEVAL", "binding": "binds"},
      {"binder": "NADH dehydrogenase [ubiquinone] 1 β subcomplex subunit 9 (mouse) (protein, UniProt Q9CQJ8 1-179) MAFCAPPAYLTHQQKVLRLYKRALRHLESWCIHRDKYRYFACLMRARFEEHKNEKDMMRATQLLREAEEEFWQNQHPQPYIFPDSPGGTSFERYECYKVPEWCLDYWHPSEKAMYPDYFSKREQWKKLRMESWDREVKQLQEETSPDGIMTEALPPARREGDLPPLWWHIVTRPRERPT", "binding": "binds"},
      {"binder": "NADH dehydrogenase [ubiquinone] 1 subunit C2 (mouse) (protein, UniProt Q9CQ54 1-120) MMNGRPGHEPLKFLPDEARSLPPPKLNDPRLVYMGLLGYCTGLMDNMLRMRPVMRAGLHRQLLFVTSFVFAGYFYLKRQNYLYAVKDHDMFGYIKLHPEDFPEKEKKTYAEILEPFHPVR", "binding": "binds"},
      {"binder": "NADH dehydrogenase [ubiquinone] iron-sulfur protein 5 (mouse) (protein, UniProt Q99LY9 1-106) MPFLDIQKKLGISLDRHFMFLSAEQPYKNAARCHAFEKEWIECAHGIGGTRAKKECKIEFDDFEECLLRYKTMRRMHDIKKQREKLMKEGKYTPPPHHSGREEPRP", "binding": "binds"},
      {"binder": "Neurofilament heavy polypeptide (mouse) (protein, UniProt P19246 1-1090) MMSFGSADALLGAPFAPLHGGGSLHYSLSRKAGPGGTRSAAGSSSGFHSWARTSVSSVSASPSRFRGAASSTDSLDTLSNGPEGCVVAAVAARSEKEQLQALNDRFAGYIDKVRQLEAHNRSLEGEAAALRQQQAGRAAMGELYEREVREMRGAVLRLGAARGQLRLEQEHLLEDIAHVRQRLDEEARQREEAEAAARALARFAQEAEAARVELQKKAQALQEECGYLRRHHQEEVGELLGQIQGCGAAQAQAQAEARDALKCDVTSALREIRAQLEGHAVQSTLQSEEWFRVRLDRLSEAAKVNTDAMRSAQEEITEYRRQLQARTTELEALKSTKESLERQRSELEDRHQADIASYQDAIQQLDSELRNTKWEMAAQLREYQDLLNVKMALDIEIAAYRKLLEGEECRIGFGPSPFSLTEGLPKIPSISTHIKVKSEEMIKVVEKSEKETVIVEGQTEEIRVTEGVTEEEDKEAQGQEGEEAEEGEEKEEEEGAAATSPPAEEAASPEKETKSRVKEEAKSPGEAKSPGEAKSPAEAKSPGEAKSPGEAKSPGEAKSPAEPKSPAEPKSPAEAKSPAEPKSPATVKSPGEAKSPSEAKSPAEAKSPAEAKSPAEAKSPAEAKSPAEAKSPAEAKSPATVKSPGEAKSPSEAKSPAEAKSPAEAKSPAEAKSPAEVKSPGEAKSPAEPKSPAEAKSPAEVKSPAEAKSPAEVKSPGEAKSPAAVKSPAEAKSPAAVKSPGEAKSPGEAKSPAEAKSPAEAKSPIEVKSPEKAKTPVKEGAKSPAEAKSPEKAKSPVKEDIKPPAEAKSPEKAKSPVKEGAKPPEKAKPLDVKSPEAQTPVQEEAKHPTDIRPPEQVKSPAKEKAKSPEKEEAKTSEKVAPKKEEVKSPVKEEVKAKEPPKKVEEEKTLPTPKTEAKESKKDEAPKEAPKPKVEEKKETPTEKPKDSTAEAKKEEAGEKKKAVASEEETPAKLGVKEEAKPKEKTETTKTEAEDTKAKEPSKPTETEKPKKEEMPAAPEKKDTKEEKTTESRKPEEKPKMEAKVKEDDKSLSKEPSKPKTEKAEKSSSTDQKESQPPEKTTEDKATKGEK", "binding": "binds"},
      {"binder": "Neurofilament light polypeptide (mouse) (protein, UniProt P08551 1-543) MSSFGYDPYFSTSYKRRYVETPRVHISSVRSGYSTARSAYSSYSAPVSSSLSVRRSYSSSSGSLMPSLENLDLSQVAAISNDLKSIRTQEKAQLQDLNDRFASFIERVHELEQQNKVLEAELLVLRQKHSEPSRFRALYEQEIRDLRLAAEDATNEKQALQGEREGLEETLRNLQARYEEEVLSREDAEGRLMEARKGADEAALARAELEKRIDSLMDEIAFLKKVHEEEIAELQAQIQYAQISVEMDVSSKPDLSAALKDIRAQYEKLAAKNMQNAEEWFKSRFTVLTESAAKNTDAVRAAKDEVSESRRLLKAKTLEIEACRGMNEALEKQLQELEDKQNADISAMQDTINKLENELRSTKSEMARYLKEYQDLLNVKMALDIEIAAYRKLLEGEETRLSFTSVGSITSGYSQSSQVFGRSAYSGLQSSSYLMSARSFPAYYTSHVQEEQTEVEETIEATKAEEAKDEPPSEGEAEEEEKEKEEGEEEEGAEEEEAAKDESEDTKEEEEGGEGEEEDTKESEEEEKKEESAGEEQVAKKKD", "binding": "binds"},
      {"binder": "Neurofilament medium polypeptide (mouse) (protein, UniProt P08553 1-848) MSYTLDSLGNPSAYRRVTETRSSFSRVSGSPSSGFRSQSWSRGSPSTVSSSYKRSALAPRLAYSSAMLSSAESSLDFSQSSSLLNGGSGGDYKLSRSNEKEQLQGLNDRFAGYIEKVHYLEQQNKEIEAEIQALRQKQASHAQLGDAYDQEIRELRATLEMVNHEKAQVQLDSDHLEEDIHRLKERFEEEARLRDDTEAAIRALRKDIEESSMVKVELDKKVQSLQDEVAFLRSNHEEEVADLLAQIQASHITVERKDYLKTDISTALKEIRSQLECHSDQNMHQAEEWFKCRYAKLTEAAEQNKEAIRSAKEEIAEYRRQLQSKSIELESVRGTKESLERQLSDIEERHNHDLSSYQDTIQQLENELRGTKWEMARHLREYQDLLNVKMALDIEIAAYRKLLEGEETRFSTFSGSITGPLYTHRQPSVTISSKIQKTKVEAPKLKVQHKFVEEIIEETKVEDEKSEMEETLTAIAEELAASAKEEKEEAEEKEEEPEAEKSPVKSPEAKEEEEEGEKEEEEEGQEEEEEEDEGVKSDQAEEGGSEKEGSSEKDEGEQEEEEGETEAEGEGEEAEAKEEKKIEGKVEEVAVKEEIKVEKPEKAKSPMPKSPVEEVKPKPEAKAGKGEQKEEEKVEEEKKEVTKESPKEEKVEKKEEKPKDVADKKKAESPVKEKAVEEVITISKSVKVSLEKDTKEEKPQPQEKVKEKAEEEGGSEEEGSDRSPQESKKEDIAINGEVEGKEEEEQETQEKGSGREEEKGVVTNGLDVSPAEEKKGEDSSDDKVVVTKKVEKITSEGGDGATKYITKSVTVTQKVEEHEETFEEKLVSTKKVEKVTSHAIVKEVTQGD", "binding": "binds"},
      {"binder": "OCIA domain-containing protein 2 (mouse) (protein, UniProt Q9D8W7 1-154) MASVSTHGNQEKSPHLPPLSKQSLLFCPKSKLHIHRGEIAKIIRECQEESFWKRALPFSLISMLVTQGLVHQGYLAANPRFGSLPKVALAGLLGFGLGKASYIRVCQSKFHSFEDQLRGAGFGPEHNRHCLLTCEDCKTRRGLSEKAGSQPSAS", "binding": "binds"},
      {"binder": "Dihydrolipoyl-lysine residue succinyltransferas 2-oxoglutarate dehydrogenase complex, mito (mouse) (protein, UniProt Q9D2G2 69-454) NDVITVQTPAFAESVTEGDVRWEKAVGDAVAEDEVVCEIETDKTSVQVPSPANGIIEALLVPDGGKVEGGTPLFTLRKTGAAPAKAKPAETPAPAHKAEPAAPAAPPPPAAPVLTQMPPVPSPSQPPSSKPVSAIKPTAAPPLAEAGAAKGLRSEHREKMNRMRQRIAQRLKEAQNTCAMLTTFNEVDMSNIQEMRARHKDAFLKKHNLKLGFMSAFVKASAFALQEQPVVNAVIDDATKEVVYRDYIDISVAVATPRGLVVPVIRNVETMNYADIERTINELGEKARKNELAIEDMDGGTFTISNGGVFGSLFGTPIINPPQSAILGMHAIFDRPVAVGGKVEVRPMMYVALTYDHRLIDGREAVTFLRKIKAAVEDPRVLLLDL", "binding": "binds"}
    ]}
  ]
}
